According to the supplement of paper PMC12819154, “High-throughput peptide-centric local stability assay extends protein–ligand identification to membrane proteins, tissues and bacteria” (Nature Structural & Molecular Biology, 2025):
Some of the results follow. Most entries show no effect beyond the scatter of the controls.

Amino acid sequences for entries named in this document (tags omitted). A change or cut given only in a name is not applied to a line headed by its entry.
UniProt Q8N302: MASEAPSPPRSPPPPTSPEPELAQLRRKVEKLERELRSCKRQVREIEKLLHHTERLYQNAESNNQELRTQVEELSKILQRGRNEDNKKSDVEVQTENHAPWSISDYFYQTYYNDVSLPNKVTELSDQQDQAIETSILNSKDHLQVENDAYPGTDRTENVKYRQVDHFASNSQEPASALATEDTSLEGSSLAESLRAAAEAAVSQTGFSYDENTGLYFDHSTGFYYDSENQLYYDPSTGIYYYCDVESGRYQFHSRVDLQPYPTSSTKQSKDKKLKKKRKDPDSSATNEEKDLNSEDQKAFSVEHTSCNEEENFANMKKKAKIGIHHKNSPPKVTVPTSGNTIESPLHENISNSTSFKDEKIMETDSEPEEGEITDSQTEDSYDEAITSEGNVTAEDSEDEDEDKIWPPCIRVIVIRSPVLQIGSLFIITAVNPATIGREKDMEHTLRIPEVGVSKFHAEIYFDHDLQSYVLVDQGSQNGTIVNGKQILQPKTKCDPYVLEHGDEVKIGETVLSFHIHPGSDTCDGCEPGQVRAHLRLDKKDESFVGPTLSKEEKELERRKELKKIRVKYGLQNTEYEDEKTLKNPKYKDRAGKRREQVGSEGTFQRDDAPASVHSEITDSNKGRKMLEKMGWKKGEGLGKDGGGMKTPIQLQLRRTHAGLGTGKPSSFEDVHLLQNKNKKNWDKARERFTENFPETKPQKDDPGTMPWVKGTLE
UniProt Q8IYT4: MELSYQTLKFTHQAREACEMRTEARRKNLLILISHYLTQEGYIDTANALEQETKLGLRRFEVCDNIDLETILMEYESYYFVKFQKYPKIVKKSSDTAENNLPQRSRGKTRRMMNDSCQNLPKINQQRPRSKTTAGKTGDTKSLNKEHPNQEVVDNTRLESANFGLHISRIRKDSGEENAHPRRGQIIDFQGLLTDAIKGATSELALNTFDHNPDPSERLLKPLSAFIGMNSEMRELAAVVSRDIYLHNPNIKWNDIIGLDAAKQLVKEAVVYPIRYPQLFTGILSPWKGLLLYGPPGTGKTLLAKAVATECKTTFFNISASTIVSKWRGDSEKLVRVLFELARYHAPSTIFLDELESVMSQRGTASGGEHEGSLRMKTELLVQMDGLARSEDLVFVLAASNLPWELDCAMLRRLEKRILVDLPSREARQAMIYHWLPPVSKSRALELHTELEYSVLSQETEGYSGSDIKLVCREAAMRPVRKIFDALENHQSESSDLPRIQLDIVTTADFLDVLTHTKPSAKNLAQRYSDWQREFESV
UniProt Q8IWI9: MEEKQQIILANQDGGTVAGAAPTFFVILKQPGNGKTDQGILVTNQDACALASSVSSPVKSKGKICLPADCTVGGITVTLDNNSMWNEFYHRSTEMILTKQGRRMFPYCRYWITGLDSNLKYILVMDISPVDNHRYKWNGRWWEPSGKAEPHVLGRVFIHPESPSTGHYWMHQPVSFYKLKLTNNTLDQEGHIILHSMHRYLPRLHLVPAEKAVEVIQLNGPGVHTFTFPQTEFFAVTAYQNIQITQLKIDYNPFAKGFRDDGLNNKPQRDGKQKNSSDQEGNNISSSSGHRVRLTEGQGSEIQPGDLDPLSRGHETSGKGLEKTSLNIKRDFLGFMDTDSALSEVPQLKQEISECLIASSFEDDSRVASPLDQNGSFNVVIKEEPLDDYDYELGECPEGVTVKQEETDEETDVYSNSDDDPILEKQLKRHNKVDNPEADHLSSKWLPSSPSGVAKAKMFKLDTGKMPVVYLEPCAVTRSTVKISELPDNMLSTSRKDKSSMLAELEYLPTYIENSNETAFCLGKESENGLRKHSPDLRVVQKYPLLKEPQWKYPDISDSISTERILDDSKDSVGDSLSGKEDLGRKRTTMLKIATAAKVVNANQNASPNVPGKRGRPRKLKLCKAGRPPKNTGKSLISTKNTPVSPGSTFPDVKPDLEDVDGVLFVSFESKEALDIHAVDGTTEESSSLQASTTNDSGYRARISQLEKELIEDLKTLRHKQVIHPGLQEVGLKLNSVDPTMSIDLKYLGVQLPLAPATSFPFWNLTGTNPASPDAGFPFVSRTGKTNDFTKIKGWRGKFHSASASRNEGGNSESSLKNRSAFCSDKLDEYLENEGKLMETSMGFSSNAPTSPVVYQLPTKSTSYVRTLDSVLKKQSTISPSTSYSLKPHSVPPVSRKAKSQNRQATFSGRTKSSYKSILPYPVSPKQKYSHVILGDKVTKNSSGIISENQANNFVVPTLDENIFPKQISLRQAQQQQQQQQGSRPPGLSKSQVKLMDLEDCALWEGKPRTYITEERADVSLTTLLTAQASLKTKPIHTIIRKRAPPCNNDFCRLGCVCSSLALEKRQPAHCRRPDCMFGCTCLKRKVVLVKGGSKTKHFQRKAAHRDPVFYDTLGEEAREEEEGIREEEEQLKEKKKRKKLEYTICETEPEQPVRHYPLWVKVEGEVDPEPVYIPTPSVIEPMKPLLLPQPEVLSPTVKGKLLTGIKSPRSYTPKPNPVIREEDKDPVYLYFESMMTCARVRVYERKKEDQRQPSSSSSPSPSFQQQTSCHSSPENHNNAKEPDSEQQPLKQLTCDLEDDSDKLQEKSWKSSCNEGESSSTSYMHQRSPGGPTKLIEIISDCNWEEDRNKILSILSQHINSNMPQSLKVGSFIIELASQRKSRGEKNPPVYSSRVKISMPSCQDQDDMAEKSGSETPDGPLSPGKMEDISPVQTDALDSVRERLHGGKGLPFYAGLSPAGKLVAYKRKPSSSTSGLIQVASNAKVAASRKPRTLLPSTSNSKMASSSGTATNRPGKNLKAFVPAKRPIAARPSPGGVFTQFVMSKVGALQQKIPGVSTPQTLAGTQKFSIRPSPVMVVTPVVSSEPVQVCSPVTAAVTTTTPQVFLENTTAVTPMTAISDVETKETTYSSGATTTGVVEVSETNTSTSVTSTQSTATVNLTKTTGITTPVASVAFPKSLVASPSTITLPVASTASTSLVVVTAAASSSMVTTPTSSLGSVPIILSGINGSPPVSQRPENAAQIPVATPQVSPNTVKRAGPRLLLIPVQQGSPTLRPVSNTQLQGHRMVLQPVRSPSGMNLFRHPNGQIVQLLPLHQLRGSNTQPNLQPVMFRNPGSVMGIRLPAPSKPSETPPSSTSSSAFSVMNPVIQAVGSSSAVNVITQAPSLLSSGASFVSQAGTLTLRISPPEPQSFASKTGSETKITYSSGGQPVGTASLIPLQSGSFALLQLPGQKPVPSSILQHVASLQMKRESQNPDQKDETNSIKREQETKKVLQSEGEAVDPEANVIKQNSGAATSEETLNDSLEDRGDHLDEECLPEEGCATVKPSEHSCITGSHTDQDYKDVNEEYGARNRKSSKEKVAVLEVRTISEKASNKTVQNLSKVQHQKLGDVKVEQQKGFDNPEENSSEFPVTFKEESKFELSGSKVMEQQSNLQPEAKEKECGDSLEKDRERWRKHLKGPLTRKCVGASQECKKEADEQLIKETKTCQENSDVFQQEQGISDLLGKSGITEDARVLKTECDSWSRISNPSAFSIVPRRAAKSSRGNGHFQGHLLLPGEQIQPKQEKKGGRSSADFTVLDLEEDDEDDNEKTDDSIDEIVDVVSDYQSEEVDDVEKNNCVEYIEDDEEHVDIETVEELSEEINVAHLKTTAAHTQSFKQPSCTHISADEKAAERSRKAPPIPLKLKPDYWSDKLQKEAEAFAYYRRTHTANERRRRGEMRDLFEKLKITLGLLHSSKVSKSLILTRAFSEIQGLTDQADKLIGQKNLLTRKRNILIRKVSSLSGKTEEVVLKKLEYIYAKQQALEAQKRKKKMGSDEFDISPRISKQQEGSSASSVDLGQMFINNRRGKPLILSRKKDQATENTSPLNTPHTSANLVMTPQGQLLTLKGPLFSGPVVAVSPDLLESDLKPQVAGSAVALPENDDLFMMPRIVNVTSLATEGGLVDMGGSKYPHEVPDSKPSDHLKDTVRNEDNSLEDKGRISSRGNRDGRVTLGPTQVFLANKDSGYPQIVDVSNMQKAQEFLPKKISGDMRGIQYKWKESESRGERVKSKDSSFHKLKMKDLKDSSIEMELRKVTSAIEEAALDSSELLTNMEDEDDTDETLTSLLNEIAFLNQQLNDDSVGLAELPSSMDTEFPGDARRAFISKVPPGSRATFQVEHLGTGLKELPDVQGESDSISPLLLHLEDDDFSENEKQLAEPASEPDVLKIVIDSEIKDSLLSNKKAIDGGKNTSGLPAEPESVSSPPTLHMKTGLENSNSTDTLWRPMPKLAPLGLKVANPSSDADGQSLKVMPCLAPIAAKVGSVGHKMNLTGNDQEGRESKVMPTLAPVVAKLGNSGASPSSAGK
UniProt Q86YJ7: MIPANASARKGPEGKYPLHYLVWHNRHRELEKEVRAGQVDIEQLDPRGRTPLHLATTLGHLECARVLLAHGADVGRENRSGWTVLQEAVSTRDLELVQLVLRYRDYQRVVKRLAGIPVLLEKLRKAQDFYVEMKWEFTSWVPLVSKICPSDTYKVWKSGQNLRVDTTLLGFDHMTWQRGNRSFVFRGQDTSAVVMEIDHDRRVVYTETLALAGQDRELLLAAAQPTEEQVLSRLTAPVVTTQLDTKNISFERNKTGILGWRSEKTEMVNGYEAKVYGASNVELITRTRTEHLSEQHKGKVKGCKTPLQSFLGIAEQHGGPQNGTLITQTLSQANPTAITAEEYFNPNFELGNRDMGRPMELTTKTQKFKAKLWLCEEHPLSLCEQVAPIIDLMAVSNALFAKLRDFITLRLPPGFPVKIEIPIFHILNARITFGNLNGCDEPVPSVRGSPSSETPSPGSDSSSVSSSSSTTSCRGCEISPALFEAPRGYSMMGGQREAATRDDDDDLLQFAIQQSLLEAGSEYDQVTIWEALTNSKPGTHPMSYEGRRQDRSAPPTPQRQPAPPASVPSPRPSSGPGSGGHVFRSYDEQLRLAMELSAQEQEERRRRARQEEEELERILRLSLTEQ
UniProt Q86YR6: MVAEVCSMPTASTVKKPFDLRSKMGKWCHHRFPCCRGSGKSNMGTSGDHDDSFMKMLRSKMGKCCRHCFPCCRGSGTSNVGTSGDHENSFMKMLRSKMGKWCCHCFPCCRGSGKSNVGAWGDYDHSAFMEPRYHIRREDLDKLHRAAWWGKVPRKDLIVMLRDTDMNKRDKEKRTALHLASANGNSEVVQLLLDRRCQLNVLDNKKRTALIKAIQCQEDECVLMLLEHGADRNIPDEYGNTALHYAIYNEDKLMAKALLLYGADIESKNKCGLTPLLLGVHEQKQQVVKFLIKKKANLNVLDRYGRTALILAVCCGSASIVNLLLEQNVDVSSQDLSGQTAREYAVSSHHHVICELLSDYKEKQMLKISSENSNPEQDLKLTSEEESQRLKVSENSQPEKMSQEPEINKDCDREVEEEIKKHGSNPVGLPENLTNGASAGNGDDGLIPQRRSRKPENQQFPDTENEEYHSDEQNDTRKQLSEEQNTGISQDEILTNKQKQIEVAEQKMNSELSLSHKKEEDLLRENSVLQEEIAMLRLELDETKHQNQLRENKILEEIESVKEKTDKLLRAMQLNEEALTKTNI
UniProt Q8N128: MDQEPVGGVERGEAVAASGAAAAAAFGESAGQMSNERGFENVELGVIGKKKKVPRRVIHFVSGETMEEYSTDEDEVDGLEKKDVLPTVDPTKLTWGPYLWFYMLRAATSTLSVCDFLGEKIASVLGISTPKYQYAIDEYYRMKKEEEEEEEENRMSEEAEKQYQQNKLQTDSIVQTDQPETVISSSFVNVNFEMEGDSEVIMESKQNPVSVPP
UniProt Q8IWA0: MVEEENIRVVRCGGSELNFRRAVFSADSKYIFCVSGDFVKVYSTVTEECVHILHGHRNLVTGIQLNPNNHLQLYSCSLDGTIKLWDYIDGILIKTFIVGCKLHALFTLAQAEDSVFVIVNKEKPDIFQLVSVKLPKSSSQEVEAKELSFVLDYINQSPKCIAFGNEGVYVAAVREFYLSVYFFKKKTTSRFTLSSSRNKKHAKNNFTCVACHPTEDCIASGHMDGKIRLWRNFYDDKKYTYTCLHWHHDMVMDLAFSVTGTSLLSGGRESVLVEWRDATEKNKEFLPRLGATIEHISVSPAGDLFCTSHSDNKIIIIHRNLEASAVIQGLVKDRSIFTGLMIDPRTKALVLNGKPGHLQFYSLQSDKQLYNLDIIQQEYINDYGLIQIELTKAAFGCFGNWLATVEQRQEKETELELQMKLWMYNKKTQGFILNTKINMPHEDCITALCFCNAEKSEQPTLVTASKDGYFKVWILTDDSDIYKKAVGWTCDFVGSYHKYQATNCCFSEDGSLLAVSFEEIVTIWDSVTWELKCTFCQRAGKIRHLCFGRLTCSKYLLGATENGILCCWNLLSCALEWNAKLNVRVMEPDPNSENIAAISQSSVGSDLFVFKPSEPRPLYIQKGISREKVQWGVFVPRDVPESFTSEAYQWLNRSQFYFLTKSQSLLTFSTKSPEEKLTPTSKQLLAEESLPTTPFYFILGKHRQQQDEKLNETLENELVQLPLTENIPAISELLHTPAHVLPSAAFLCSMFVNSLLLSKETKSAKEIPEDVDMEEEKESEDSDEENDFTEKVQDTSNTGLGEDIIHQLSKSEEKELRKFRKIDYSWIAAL

Compound: CN[C@@H]1C[C@H]2O[C@@](C)([C@@H]1OC)n1c3ccccc3c3c4c(c5c6ccccc6n2c5c31)C(=O)NC4 [staurosporine]
Assay: log2 fold change of tryptic peptide abundance, ligand vs vehicle (limited proteolysis) (log2 ratio); higher = more trypsin-susceptible (destabilized)
Settings: ligand concentration: 20 uM; sample: K562 cleared lysate; digestion: 4 min, 22 C (HT-PELSA RT4min, Orbitrap Astral)

Target	log2 fold change
HOMEZ (peptide sequence: LSTQQVLDWFDSR, peptide start residue: 490) (UniProt Q8IX15)	0.302
SPATS2 (peptide sequence: YQSAPSQAPGNTIER, peptide start residue: 488) (UniProt Q86XZ4)	-0.322
ZC3H7A (peptide sequence: FAHGNAELHEWEERR, peptide start residue: 923) (UniProt Q8IWR0)	-0.813
ARHGAP24 (peptide sequence: SLPVVNYNLLK, peptide start residue: 255) (UniProt Q8N264)	-0.188
AGGF1 (peptide sequence: DESFVGPTLSK, peptide start residue: 541) (UniProt Q8N302)	0.631
UniProt Q8IYN6 (peptide sequence: AMAAMDGQR, peptide start residue: 156)	-0.0691
UniProt Q8IVL6 (peptide sequence: LLLEVSER, peptide start residue: 534)	-0.269
UniProt Q8IYT4 (peptide sequence: GLLLYGPPGTGK, peptide start residue: 289)	-0.011
MICALL2 (peptide sequence: TPRPASPGPSLPAR, peptide start residue: 644) (UniProt Q8IY33)	-0.343
MGA (peptide sequence: KLEYIYAK, peptide start residue: 2513) (UniProt Q8IWI9)	0.611
SIAH1 (peptide sequence: LTCCPTCR, peptide start residue: 69) (UniProt Q8IUQ4)	0.286
ZNF100 (peptide sequence: FHITENSYQCK, peptide start residue: 226) (UniProt Q8IYN0)	-0.611
ANKRD13B (peptide sequence: VYGASNVELITR, peptide start residue: 275) (UniProt Q86YJ7)	-0.326
UniProt Q8N140 (peptide sequence: ILGLLQTYFR, peptide start residue: 270)	-0.0251
RUSC2 (peptide sequence: WGHLFGSR, peptide start residue: 1386) (UniProt Q8N2Y8)	0.472
GALNT12 (peptide sequence: AAEVWMDEFK, peptide start residue: 383) (UniProt Q8IXK2)	1.09
UniProt Q86YR6 (peptide sequence: QKQIEVAEQK, peptide start residue: 498)	0.0928
STK11IP (peptide sequence: FSYICPDR, peptide start residue: 618) (UniProt Q8N1F8)	0.229
UniProt Q8N141 (peptide sequence: IEGQERPQEGYFSSVK, peptide start residue: 127)	-0.491
UniProt Q8IYD8 (peptide sequence: YQIILAR, peptide start residue: 332)	-0.282
UniProt Q86YS7 (peptide sequence: TPNDGSYEQHISHMQK, peptide start residue: 601)	0.219
ZC3H3 (peptide sequence: TSGQPSDAGSRPLLR, peptide start residue: 619) (UniProt Q8IXZ2)	-0.357
FAM177A1 (peptide sequence: MKKEEEEEEEENR, peptide start residue: 142) (UniProt Q8N128)	0.423
SCYL3 (peptide sequence: NTSEDSENFPSSSKK, peptide start residue: 511) (UniProt Q8IZE3)	-0.245
WDR75 (peptide sequence: LGATIEHISVSPAGDLFCTSHSDNK, peptide start residue: 289) (UniProt Q8IWA0)	0.236
RAVER1 (peptide sequence: AADVSVTHRPPLSPK, peptide start residue: 2) (UniProt Q8IY67)	0.373
METTL4 (peptide sequence: EISISIIGK, peptide start residue: 124) (UniProt Q8N3J2)	0.0182
SLX4 (peptide sequence: KVDEAPSEDLLVAMALSR, peptide start residue: 412) (UniProt Q8IY92)	0.558
